Experimental data: the supplement of paper PMC10849652
The other results are listed elsewhere or left out.

The chains behind the UniProt entries cited, without tags or fusion partners. Where a name states a change or a piece, a line headed by the entry shows the natural chain unless it says otherwise.
UniProt Q07817, whole entry, looked up: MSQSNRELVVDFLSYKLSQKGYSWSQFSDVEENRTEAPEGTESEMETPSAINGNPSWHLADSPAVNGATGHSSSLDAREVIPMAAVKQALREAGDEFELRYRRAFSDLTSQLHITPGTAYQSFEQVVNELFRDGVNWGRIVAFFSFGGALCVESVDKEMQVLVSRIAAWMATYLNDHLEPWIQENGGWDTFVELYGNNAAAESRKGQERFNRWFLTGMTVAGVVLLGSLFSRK
UniProt P12694: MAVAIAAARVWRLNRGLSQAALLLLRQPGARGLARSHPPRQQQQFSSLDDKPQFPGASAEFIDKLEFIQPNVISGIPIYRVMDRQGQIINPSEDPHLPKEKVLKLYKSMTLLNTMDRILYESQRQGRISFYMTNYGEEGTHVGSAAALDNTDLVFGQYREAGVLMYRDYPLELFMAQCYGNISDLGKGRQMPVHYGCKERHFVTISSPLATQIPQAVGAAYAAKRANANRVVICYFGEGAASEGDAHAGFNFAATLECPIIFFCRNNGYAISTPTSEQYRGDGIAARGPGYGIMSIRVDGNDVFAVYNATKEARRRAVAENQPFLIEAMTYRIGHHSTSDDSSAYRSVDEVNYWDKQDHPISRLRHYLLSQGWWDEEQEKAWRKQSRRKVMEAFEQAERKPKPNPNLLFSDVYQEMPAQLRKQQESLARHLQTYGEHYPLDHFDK
UniProt Q96G01: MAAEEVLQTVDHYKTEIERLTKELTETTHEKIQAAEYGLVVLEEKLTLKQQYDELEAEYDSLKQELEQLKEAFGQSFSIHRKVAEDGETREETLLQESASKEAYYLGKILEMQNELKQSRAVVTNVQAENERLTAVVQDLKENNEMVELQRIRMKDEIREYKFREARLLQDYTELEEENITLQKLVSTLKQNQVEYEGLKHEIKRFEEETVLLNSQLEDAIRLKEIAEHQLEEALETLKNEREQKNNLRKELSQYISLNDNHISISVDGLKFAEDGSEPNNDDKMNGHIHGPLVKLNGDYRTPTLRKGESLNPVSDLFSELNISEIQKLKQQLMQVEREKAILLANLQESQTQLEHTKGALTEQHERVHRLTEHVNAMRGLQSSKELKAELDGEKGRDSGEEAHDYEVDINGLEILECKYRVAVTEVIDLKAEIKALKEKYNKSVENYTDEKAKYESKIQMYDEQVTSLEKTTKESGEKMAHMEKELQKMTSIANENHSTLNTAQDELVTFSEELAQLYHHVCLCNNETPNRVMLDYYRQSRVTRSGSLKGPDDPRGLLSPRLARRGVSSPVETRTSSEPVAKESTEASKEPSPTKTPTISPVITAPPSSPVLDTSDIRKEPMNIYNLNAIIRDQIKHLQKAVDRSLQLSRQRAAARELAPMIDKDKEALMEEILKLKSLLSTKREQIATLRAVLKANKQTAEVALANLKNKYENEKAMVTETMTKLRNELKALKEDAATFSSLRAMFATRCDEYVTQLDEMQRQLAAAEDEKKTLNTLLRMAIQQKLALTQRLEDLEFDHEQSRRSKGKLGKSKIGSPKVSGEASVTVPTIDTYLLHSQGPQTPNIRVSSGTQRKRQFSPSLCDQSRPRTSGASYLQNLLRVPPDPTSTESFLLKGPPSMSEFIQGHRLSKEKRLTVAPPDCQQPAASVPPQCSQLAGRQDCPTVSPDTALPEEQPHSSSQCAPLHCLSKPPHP
UniProt Q6QNY1: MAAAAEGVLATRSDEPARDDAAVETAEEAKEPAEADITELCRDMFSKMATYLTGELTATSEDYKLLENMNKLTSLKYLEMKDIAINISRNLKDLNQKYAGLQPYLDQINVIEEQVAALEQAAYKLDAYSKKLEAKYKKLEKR
UniProt Q8WY22: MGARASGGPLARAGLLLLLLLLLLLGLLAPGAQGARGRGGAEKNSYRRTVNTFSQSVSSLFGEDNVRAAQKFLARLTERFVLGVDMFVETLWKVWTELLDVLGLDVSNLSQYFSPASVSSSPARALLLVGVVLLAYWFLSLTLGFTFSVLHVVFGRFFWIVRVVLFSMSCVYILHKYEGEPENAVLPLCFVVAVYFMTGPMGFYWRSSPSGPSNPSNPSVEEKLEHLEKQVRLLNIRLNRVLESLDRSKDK
UniProt Q53S33: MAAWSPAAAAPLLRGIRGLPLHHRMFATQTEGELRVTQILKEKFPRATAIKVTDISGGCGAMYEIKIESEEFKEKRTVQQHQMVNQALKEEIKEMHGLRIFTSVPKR
UniProt P54132: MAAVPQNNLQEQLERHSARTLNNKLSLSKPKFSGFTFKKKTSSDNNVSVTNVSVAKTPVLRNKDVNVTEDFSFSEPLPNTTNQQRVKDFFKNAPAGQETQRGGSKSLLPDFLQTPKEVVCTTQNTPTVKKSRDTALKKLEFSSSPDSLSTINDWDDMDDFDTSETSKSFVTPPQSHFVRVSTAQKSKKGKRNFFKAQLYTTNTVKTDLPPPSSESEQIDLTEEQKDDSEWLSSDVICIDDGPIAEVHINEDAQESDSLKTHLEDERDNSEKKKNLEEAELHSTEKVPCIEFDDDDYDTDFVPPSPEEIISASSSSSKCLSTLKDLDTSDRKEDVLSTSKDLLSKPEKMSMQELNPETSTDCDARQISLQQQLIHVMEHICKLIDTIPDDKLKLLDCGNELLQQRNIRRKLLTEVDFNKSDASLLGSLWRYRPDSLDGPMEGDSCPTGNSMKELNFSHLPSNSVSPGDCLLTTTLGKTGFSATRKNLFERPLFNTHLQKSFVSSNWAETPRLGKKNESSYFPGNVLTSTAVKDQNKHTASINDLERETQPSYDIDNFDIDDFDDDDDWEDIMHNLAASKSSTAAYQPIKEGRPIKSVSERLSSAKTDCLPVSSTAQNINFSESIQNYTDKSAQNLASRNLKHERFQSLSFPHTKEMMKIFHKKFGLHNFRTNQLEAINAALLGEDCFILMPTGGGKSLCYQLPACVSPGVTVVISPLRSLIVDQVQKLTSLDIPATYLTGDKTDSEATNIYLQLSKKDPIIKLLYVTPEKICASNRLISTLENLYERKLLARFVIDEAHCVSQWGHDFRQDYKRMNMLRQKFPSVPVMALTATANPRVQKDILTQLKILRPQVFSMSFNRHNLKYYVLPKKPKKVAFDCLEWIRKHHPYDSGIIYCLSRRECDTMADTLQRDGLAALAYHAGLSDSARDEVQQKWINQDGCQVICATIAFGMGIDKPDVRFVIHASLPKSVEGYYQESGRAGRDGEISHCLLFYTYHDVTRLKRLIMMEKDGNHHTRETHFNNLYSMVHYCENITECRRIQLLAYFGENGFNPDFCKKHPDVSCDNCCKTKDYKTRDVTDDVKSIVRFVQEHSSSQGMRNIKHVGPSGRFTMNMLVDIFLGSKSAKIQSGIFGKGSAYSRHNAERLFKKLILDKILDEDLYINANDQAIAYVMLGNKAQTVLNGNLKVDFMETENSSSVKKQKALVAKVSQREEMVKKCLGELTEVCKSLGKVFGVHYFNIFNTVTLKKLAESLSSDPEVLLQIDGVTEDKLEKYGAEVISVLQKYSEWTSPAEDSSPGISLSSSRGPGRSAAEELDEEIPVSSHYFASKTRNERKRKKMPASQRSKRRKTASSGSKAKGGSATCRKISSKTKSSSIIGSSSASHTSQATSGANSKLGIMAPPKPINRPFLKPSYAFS
UniProt O94766: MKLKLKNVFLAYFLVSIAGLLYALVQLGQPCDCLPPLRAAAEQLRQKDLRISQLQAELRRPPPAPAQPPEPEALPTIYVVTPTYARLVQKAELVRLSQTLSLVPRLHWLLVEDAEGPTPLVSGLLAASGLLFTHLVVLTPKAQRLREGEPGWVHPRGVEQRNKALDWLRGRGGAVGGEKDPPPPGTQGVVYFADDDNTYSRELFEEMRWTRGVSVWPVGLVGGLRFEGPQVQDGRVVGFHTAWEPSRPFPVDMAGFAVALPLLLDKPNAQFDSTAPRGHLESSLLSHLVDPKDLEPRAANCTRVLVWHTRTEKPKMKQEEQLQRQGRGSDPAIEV
UniProt O75363: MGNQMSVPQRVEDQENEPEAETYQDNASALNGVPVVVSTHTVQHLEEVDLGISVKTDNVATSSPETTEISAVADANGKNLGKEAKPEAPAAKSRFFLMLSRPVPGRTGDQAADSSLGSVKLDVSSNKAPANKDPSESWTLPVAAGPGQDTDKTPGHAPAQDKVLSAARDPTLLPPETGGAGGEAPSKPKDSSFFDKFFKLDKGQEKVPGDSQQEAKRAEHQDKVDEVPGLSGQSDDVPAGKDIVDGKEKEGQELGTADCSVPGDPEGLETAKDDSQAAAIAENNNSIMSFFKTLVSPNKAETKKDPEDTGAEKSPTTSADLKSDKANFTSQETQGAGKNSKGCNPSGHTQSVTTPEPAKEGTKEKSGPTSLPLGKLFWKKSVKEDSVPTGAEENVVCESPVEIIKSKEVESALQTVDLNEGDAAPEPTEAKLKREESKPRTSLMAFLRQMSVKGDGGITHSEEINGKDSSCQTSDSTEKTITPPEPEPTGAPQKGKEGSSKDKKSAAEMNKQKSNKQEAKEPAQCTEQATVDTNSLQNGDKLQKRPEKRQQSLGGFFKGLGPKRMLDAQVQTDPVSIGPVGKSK
UniProt P61769, whole entry, looked up: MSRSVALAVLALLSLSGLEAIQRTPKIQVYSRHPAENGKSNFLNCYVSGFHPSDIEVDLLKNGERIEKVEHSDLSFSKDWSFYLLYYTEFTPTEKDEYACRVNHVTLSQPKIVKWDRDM
UniProt Q8NBF6: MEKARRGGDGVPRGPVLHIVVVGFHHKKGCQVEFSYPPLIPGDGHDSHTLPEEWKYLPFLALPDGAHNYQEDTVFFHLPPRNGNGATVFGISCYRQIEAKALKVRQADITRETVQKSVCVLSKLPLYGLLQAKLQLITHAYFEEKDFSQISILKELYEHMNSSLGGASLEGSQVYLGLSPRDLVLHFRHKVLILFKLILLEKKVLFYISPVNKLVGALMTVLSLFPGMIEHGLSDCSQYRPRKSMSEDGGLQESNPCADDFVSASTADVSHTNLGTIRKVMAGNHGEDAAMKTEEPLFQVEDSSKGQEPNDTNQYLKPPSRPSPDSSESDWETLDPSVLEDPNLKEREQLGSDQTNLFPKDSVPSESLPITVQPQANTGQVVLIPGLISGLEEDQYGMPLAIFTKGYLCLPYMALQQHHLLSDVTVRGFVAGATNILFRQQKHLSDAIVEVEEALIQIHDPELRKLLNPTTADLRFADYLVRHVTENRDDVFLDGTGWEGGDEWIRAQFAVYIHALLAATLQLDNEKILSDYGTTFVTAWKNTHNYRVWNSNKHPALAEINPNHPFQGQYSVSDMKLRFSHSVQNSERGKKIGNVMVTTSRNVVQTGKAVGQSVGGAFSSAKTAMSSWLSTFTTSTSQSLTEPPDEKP
UniProt Q5VW32: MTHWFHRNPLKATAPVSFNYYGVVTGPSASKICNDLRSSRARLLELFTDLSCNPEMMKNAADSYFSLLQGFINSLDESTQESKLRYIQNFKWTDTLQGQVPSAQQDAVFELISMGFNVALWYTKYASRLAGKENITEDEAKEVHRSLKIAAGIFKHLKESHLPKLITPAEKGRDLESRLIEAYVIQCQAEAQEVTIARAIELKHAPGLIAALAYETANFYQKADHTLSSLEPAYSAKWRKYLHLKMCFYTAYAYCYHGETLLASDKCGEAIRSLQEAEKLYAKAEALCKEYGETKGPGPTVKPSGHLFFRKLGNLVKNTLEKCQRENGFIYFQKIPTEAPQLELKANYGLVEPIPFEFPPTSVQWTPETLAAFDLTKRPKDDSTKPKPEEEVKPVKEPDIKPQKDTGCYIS
UniProt Q13867: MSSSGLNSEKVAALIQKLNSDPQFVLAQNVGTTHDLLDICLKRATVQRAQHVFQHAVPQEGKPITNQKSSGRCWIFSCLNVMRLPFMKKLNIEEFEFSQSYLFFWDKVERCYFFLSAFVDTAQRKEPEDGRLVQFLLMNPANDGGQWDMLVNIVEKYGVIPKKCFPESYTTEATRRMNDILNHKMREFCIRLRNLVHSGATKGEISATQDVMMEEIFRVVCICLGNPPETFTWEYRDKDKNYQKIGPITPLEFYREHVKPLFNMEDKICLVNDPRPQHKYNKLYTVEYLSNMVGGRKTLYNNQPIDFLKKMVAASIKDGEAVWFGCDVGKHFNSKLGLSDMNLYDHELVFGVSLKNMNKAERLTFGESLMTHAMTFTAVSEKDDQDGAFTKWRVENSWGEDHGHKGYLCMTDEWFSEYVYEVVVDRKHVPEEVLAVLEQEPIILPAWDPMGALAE
UniProt Q96B45: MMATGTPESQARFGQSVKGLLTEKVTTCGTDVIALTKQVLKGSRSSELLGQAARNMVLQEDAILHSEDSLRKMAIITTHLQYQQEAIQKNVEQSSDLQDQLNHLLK
UniProt O95861: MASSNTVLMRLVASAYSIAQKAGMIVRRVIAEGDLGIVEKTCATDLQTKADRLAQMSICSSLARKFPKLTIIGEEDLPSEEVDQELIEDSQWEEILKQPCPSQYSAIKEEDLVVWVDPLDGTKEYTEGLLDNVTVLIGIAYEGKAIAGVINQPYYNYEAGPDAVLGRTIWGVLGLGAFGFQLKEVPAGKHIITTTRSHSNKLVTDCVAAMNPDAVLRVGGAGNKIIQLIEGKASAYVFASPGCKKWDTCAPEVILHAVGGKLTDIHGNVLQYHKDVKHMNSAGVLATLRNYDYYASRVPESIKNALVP

What follows are targets tested with c1cn2cc(-c3ccc4cn[nH]c4c3)nc(Nc3ccc(N4CCOCC4)cc3)c2n1 [entospletinib] (assay: log2 fold change, soluble protein after heating vs DMSO (PISA); higher = thermal stabilisation; K562 cells, 10 uM, 30 min; active = over 0.2 and 3.5 SD of the protein, either way, in both replicates (recomputed)).
In short: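 K562 cells at 2×10^6 cells/mL were exposed to 10 μM compound for 30 min, then aliquots were heated for 3 min across 48°C-58°C, pooled, and extracted in PBS containing 0.5% NP-40 at 4°C. The supernatant after 21,000xg for 90 min was taken as soluble protein and measured by TMTpro 16plex LC-MS/MS with channel sums equalised. Thermal stability is reported relative to control samples, with values from duplicates. Fold changes are given on a log2 scale.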

log2 fold change, inactive:
BCL2L1 (UniProt Q07817) -0.078
BNIP3 (UniProt Q12983) -0.093
BCKDHA (UniProt P12694) 0.017
BICD1 (UniProt Q96G01) -0.018
BCL2L12 (UniProt Q9HB09) -0.035
BNIP3L (UniProt O60238) -0.125
BLOC1S2 (UniProt Q6QNY1) -0.066
BRI3BP (UniProt Q8WY22) -0.046
BAZ1B (UniProt Q9UIG0) -0.049
ATRAID isoform 3 (UniProt Q6UW56) 0.016
BCL9 (UniProt O00512) 0.036
BOLA3 (UniProt Q53S33) 0.047
BICD2 isoform 2 (UniProt Q8TD16) -0.022
BCL2L13 (UniProt Q9BXK5) 0.02
BCL7A isoform 2 (UniProt Q4VC05) 0.143
BLM (UniProt P54132) 0.085
B3GNT2 (UniProt Q9NY97) -0.053
B3GAT3 (UniProt O94766) -0.006
B4GALT7 (UniProt Q9UBV7) -0.005
BCAS1 (UniProt O75363) 0.059
B2M (UniProt P61769) 0.008
AVL9 (UniProt Q8NBF6) 0.01
BIRC5 (UniProt O15392) -0.094
BROX (UniProt Q5VW32) -0.003
BLMH (UniProt Q13867) -0.029
BABAM1 (UniProt Q9NWV8) -0.015
BET1 (UniProt O15155) 0.025
BBC3 (UniProt Q9BXH1) 0.036
BORCS7 (UniProt Q96B45) -0.015
BPNT1 (UniProt O95861) 0.064
B4GAT1 (UniProt O43505) -0.061
ATXN2L (UniProt Q8WWM7) 0.022
ATRIP (UniProt Q8WXE1) -0.064

Pulled one by one from above, two records:
log2 fold change, inactive:
BNIP3L (UniProt O60238) -0.125
ATRIP (UniProt Q8WXE1) -0.064
